Laboratory results published in the supplement of paper PMC10849652.
The list shows a part of the results.

Amino acid sequences for entries named in this document (tags omitted). A change or cut given only in a name is not applied to a line headed by its entry.
UniProt Q8WXX5: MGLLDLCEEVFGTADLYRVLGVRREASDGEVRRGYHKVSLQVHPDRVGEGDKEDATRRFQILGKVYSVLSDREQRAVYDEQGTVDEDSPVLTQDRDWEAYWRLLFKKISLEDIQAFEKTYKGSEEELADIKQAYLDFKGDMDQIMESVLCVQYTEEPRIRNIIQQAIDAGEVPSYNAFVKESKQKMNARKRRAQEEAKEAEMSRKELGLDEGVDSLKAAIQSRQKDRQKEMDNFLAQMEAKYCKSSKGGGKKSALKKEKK
UniProt Q9UDY4: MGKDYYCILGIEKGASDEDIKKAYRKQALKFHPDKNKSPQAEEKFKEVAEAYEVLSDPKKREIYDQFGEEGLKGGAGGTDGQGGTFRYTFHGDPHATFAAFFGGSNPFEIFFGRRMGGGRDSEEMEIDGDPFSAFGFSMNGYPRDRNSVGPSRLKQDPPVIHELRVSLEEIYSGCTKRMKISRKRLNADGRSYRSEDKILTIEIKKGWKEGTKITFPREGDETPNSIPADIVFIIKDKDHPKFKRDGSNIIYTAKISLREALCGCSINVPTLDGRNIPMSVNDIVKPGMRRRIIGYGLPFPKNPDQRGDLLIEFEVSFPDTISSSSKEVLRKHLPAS
UniProt Q9NVM6: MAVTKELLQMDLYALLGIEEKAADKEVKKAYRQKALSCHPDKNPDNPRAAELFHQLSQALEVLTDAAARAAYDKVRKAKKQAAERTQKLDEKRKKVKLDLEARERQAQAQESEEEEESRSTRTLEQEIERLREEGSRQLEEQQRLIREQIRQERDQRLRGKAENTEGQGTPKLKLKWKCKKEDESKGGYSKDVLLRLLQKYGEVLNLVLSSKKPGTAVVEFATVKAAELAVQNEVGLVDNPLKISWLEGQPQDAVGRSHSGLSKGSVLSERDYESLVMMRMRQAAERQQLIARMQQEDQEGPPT
UniProt Q9BQC3: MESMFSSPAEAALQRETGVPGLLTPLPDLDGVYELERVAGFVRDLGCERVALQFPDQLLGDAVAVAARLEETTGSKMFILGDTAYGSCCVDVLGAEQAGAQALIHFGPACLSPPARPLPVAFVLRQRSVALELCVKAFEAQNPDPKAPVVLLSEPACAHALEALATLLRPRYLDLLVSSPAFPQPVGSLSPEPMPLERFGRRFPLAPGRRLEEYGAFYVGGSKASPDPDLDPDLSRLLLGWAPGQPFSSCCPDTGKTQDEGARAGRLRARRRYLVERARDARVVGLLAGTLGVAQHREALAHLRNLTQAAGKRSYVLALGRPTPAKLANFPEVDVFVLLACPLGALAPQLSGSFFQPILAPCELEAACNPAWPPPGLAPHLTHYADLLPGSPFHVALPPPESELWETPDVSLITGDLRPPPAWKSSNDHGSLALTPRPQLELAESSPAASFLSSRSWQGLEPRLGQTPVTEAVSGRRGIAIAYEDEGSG
UniProt Q9BZQ6: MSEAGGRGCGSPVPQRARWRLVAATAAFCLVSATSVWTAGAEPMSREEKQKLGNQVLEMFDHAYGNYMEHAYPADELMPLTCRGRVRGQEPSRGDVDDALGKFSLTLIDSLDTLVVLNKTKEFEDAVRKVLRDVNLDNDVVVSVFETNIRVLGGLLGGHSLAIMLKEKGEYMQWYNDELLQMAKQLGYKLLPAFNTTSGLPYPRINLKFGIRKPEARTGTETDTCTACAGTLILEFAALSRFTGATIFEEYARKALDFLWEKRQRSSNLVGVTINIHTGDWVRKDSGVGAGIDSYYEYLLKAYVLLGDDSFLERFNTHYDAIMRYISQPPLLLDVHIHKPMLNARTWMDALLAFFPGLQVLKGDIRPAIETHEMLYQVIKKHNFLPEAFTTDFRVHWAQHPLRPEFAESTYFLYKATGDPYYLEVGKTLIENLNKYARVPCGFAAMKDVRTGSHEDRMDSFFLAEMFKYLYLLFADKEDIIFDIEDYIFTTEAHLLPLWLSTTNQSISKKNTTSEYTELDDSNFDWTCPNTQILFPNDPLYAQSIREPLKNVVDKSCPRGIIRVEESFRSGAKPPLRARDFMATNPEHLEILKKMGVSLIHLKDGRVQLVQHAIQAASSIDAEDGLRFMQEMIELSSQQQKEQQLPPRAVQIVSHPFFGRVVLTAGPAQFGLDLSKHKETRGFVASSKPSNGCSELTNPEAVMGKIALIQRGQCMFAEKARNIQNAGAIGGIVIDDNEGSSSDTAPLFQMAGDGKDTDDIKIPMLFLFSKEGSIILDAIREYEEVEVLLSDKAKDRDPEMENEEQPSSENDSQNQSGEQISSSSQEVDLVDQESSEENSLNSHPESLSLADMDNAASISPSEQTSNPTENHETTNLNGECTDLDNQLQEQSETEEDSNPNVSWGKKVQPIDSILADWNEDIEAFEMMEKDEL
UniProt P60981: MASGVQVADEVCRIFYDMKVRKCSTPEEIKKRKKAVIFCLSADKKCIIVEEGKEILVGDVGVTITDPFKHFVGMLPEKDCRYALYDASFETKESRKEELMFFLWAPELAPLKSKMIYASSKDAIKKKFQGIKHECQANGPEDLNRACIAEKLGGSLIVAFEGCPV
UniProt Q5JSL3: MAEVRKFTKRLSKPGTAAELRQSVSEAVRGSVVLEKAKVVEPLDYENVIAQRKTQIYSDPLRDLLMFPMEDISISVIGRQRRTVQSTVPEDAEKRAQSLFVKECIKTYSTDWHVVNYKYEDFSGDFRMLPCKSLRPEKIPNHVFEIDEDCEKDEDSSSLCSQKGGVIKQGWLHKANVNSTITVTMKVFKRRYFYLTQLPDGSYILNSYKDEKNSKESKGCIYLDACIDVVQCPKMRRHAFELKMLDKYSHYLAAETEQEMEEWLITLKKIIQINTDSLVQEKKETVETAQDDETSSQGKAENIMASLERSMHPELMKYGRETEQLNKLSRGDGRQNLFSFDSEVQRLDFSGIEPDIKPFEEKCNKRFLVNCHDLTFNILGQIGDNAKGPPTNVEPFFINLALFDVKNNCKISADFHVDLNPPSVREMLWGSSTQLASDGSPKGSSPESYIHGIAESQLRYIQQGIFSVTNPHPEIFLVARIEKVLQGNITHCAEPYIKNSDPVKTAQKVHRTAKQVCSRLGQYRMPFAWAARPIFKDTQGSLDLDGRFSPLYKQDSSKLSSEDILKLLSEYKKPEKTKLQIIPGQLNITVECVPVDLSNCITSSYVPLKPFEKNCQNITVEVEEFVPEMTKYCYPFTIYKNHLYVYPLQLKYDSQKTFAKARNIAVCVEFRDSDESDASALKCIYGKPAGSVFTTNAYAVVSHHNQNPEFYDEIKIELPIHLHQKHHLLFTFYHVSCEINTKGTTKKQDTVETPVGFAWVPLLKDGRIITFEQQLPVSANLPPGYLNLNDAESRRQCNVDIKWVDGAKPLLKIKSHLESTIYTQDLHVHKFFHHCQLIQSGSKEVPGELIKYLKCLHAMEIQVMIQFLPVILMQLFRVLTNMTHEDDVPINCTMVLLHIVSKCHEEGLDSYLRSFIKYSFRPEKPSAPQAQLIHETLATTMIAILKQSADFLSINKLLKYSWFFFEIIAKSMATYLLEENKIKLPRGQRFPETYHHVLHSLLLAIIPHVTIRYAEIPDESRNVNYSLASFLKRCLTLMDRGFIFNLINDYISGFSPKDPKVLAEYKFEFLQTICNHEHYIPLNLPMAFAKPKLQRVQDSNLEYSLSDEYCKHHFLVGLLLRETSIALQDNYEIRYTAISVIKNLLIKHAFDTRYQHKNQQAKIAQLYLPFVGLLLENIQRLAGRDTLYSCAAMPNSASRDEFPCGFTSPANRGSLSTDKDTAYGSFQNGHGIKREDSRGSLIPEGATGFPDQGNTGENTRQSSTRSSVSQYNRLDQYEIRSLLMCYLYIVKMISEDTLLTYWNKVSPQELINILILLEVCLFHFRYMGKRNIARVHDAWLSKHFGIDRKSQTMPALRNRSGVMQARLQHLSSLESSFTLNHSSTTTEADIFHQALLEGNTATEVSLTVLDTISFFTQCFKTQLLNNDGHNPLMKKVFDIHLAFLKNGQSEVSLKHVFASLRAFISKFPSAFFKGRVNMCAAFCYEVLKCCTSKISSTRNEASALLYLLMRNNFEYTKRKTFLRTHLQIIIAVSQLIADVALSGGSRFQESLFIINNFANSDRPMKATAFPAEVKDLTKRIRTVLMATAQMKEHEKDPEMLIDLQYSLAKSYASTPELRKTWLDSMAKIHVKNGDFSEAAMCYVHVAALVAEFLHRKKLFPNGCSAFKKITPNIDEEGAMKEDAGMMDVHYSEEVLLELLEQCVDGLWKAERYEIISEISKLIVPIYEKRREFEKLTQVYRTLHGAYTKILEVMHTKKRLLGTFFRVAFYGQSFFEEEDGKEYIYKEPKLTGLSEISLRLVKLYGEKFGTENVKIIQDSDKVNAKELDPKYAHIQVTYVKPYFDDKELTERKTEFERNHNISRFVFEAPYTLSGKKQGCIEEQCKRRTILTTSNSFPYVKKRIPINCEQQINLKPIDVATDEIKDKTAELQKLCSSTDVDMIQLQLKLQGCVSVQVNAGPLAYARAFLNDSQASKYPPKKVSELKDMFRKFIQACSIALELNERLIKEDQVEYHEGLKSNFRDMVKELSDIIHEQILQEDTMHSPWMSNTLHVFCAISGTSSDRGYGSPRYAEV
UniProt Q96EY1: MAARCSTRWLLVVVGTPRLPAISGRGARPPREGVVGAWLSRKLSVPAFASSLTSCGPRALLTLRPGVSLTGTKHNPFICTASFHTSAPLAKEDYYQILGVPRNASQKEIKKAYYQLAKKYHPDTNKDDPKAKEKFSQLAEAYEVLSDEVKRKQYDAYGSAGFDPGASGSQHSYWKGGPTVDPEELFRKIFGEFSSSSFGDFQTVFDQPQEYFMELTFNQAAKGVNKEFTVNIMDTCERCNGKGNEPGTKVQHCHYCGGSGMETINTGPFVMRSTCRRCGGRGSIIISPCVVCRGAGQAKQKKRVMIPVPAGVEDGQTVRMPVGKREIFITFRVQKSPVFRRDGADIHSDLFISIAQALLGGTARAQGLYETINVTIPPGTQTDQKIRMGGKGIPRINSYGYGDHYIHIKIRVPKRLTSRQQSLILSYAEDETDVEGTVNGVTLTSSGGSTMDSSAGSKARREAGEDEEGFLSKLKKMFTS
UniProt Q9BVJ7: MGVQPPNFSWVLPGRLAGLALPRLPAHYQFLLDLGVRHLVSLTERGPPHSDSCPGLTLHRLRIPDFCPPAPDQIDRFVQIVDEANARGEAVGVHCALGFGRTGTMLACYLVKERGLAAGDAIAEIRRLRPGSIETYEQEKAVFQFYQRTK
UniProt P33316: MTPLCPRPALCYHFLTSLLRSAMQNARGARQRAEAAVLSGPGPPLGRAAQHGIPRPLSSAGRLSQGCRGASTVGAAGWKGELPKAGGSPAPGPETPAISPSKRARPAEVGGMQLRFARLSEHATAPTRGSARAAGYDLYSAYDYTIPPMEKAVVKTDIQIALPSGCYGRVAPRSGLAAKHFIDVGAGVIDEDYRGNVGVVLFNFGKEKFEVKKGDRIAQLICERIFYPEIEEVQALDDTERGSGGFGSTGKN
UniProt Q14919: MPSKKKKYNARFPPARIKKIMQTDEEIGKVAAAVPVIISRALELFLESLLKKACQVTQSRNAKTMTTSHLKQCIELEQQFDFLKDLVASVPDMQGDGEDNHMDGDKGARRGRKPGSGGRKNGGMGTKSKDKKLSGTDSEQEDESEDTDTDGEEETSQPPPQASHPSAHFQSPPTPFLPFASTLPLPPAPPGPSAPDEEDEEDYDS
UniProt Q9UKB3: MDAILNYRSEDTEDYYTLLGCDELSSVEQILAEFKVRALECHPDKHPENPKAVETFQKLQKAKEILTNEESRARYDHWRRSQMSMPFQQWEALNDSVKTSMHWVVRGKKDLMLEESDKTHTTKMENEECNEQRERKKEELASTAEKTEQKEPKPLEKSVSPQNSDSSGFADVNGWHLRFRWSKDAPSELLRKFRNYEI
UniProt Q7L8W6: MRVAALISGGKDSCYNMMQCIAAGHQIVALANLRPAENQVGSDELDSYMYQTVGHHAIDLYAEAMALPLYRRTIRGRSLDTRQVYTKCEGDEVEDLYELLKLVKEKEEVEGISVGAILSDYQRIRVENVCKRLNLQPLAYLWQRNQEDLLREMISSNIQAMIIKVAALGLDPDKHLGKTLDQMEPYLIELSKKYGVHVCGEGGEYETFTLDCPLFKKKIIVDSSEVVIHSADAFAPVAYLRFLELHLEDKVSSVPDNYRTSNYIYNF
UniProt Q8WWZ3: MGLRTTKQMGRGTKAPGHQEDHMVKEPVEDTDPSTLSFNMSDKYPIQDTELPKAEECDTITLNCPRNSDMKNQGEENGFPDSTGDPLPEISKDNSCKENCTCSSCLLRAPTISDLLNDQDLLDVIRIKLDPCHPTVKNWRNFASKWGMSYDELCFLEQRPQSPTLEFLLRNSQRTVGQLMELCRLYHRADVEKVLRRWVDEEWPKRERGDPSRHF
UniProt Q8TEA8: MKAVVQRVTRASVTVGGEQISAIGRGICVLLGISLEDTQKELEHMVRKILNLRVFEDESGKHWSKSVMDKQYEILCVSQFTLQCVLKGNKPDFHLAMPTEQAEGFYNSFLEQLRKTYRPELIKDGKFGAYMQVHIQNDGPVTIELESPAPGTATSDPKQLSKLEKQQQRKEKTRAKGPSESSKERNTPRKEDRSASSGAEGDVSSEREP

Compound: Cc1ncc(-c2ccnc(Nc3ccc(S(C)(=O)=O)cc3)n2)n1C(C)C
Test: log2 fold change, soluble protein after heating vs DMSO (PISA); higher = thermal stabilisation; K562 cells, 10 uM, 30 min; active = over 0.2 and 3.5 SD of the protein, either way, in both replicates (recomputed)
Method in brief: (§1)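 Soluble protein was quantified by TMTpro 16plex LC-MS/MS after channel sums were equalised. It was obtained as the supernatant after 21,000xg for 90 min from pooled aliquots of K562 cells (2×10^6 cells/mL, 10 μM compound, 30 min) heated for 3 min across 48°C-58°C and extracted in PBS with 0.5% NP-40 at 4°C. Thermal stability values are relative to control samples and come from duplicates. They are given as log2 fold changes.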

log2 fold change, inactive:
DNAJC9 (UniProt Q8WXX5) -0.011
ECI1 (UniProt P42126) -0.025
ECE1 (UniProt P42892) -0.1
DNAJB4 (UniProt Q9UDY4) -0.007
DNAJC17 (UniProt Q9NVM6) 0.029
DPH2 (UniProt Q9BQC3) -0.058
EDEM3 (UniProt Q9BZQ6) -0.067
DSTN (UniProt P60981) 0.012
DNAJC3 (UniProt Q13217) 0
DOCK11 (UniProt Q5JSL3) 0.038
DSG2 (UniProt Q14126) -0.005
EDF1 (UniProt O60869) -0.031
DNAJC11 (UniProt Q9NVH1) -0.012
DPH7 (UniProt Q9BTV6) 0.022
DNAJA3 (UniProt Q96EY1) 0.057
DUSP23 (UniProt Q9BVJ7) 0.025
DST (UniProt Q03001) -0.067
DR1 (UniProt Q01658) -0.017
EBAG9 isoform 2 (UniProt O00559) 0.005
DNAJC8 (UniProt O75937) 0.052
DNAJB11 (UniProt Q9UBS4) -0.015
DUT (UniProt P33316) 0.033
DTL (UniProt Q9NZJ0) -0.238
DRAP1 isoform 2 (UniProt Q14919) -0.005
DNAJC12 (UniProt Q9UKB3) -0.024
DNAJC10 (UniProt Q8IXB1) -0.029
DPH6 (UniProt Q7L8W6) 0.005
DPH1 (UniProt Q9BZG8) -0.101
DPP7 (UniProt Q9UHL4) -0.024
ECHS1 (UniProt P30084) -0.017
EDARADD (UniProt Q8WWZ3) -0.033
DTD1 (UniProt Q8TEA8) 0.002
DSC2 (UniProt Q02487) 0.182

Compound: Cn1cc(-c2ccc3c(c2)CCN3C(=O)Cc2cccc(C(F)(F)F)c2)c2c(N)ncnc21
Test: as above
Method in brief: as §1

log2 fold change, inactive:
DNAJC9 (UniProt Q8WXX5) 0.032
ECI1 (UniProt P42126) 0.08
ECE1 (UniProt P42892) 0.023
DNAJB4 (UniProt Q9UDY4) 0.033
DNAJC17 (UniProt Q9NVM6) 0.027
DPH2 (UniProt Q9BQC3) -0.018
EDEM3 (UniProt Q9BZQ6) -0.097
DSTN (UniProt P60981) 0.077
DNAJC3 (UniProt Q13217) -0.051
DOCK11 (UniProt Q5JSL3) -0.024
DSG2 (UniProt Q14126) 0.046
EDF1 (UniProt O60869) 0.038
DNAJC11 (UniProt Q9NVH1) 0.01
DPH7 (UniProt Q9BTV6) 0.014
DNAJA3 (UniProt Q96EY1) -0.006
DUSP23 (UniProt Q9BVJ7) 0.061
DST (UniProt Q03001) 0.028
DR1 (UniProt Q01658) 0.014
EBAG9 isoform 2 (UniProt O00559) 0.018
DNAJC8 (UniProt O75937) -0.001
DNAJB11 (UniProt Q9UBS4) -0.067
DUT (UniProt P33316) 0.05
DTL (UniProt Q9NZJ0) -0.043
DRAP1 isoform 2 (UniProt Q14919) -0.003
DNAJC12 (UniProt Q9UKB3) -0.019
DNAJC10 (UniProt Q8IXB1) -0.075
DPH6 (UniProt Q7L8W6) 0.024
DPH1 (UniProt Q9BZG8) -0.02
DPP7 (UniProt Q9UHL4) -0.016
ECHS1 (UniProt P30084) 0.053
EDARADD (UniProt Q8WWZ3) 0.035
DTD1 (UniProt Q8TEA8) 0.031
DSC2 (UniProt Q02487) -0.092

Compound: Cn1cc(-c2ccc3nnc(C(F)(F)c4ccc5ncccc5c4)n3n2)cn1
Test: as above
Method in brief: as §1

log2 fold change, inactive:
DNAJC9 (UniProt Q8WXX5) 0.002
ECI1 (UniProt P42126) 0.02
ECE1 (UniProt P42892) 0.006
DNAJB4 (UniProt Q9UDY4) 0.028
DNAJC17 (UniProt Q9NVM6) -0.003
DPH2 (UniProt Q9BQC3) -0.052
EDEM3 (UniProt Q9BZQ6) -0.031
DSTN (UniProt P60981) -0.008
DNAJC3 (UniProt Q13217) 0.049
DOCK11 (UniProt Q5JSL3) 0.008
DSG2 (UniProt Q14126) -0.004
EDF1 (UniProt O60869) 0.072
DNAJC11 (UniProt Q9NVH1) 0.013
DPH7 (UniProt Q9BTV6) -0.146
DNAJA3 (UniProt Q96EY1) 0.006
DUSP23 (UniProt Q9BVJ7) 0.033
DST (UniProt Q03001) 0.005
DR1 (UniProt Q01658) -0.006
EBAG9 isoform 2 (UniProt O00559) -0.144
DNAJC8 (UniProt O75937) 0.003
DNAJB11 (UniProt Q9UBS4) 0.018
DUT (UniProt P33316) -0.034
DTL (UniProt Q9NZJ0) 0.012
DRAP1 isoform 2 (UniProt Q14919) 0.03
DNAJC12 (UniProt Q9UKB3) -0.012
DNAJC10 (UniProt Q8IXB1) 0.029
DPH6 (UniProt Q7L8W6) 0.002
DPH1 (UniProt Q9BZG8) 0.015
DPP7 (UniProt Q9UHL4) -0.018
ECHS1 (UniProt P30084) -0.009
EDARADD (UniProt Q8WWZ3) 0.066
DTD1 (UniProt Q8TEA8) 0.034
DSC2 (UniProt Q02487) -0.101
